Source: PubChem BioAssay AID504774 (Drosophila RNAi Screening Center, 2011)
Aim: 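Knock-downs that shift viability of MMS-exposed cells relative to untreated ones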 (primary screen). Cells: Drosophila Kc167 cells. Knock-down reagent: long dsRNA against Drosophila genes, about 0.25 µg dsRNA per well. Time to read-out: about 6 days: 3 days knock-down, then 3 days with or without MMS. Challenge: methyl methanesulphonate 0.004% (w/v) for 3 days after knock-down. Read-out: 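ATP-dependent luminescence as a measure of live cells in MMS-exposed wells, quantile normalised within each plate, with replicate values also given as a mean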. Direction: mean viability with MMS: higher = more surviving cells after MMS.
The deposit covers about 23,000 reagents; this is an unselected part of those with a known target gene and a result. 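Values are quantile-normalised luminescence on an arbitrary scale; higher means more cells surviving MMS.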 Not all columns of the deposit are shown. No sequences are given here.

target | amplicon | mean viability with MMS
v (GeneID 32026) | DRSC20383 | 3.66e6
MFS1 (GeneID 246519) | DRSC04115 | 3.69e6
IM33 (GeneID 33592) | DRSC00476 | 3.75e6
Trim9 (GeneID 34453) | DRSC02242 | 3.40e6
Urod (GeneID 35986) | DRSC07569 | 3.41e6
Tctp (GeneID 41341) | DRSC15649 | 3.55e6
vih (GeneID 44118) | DRSC09778 | 3.17e6
Eig71Eh (GeneID 39709) | DRSC11155 | 3.64e6
Tlk (GeneID 318206) | DRSC17731 | 3.31e6
Tlk (GeneID 318206) | DRSC17835 | 2.82e6
Tlk (GeneID 318206) | DRSC22924 | 3.41e6
Tlk (GeneID 318206) | DRSC22926 | 3.13e6
Tlk (GeneID 318206) | DRSC22938 | 3.60e6
Tlk (GeneID 318206) | DRSC23163 | 2.84e6
CG31038 (GeneID 43535) | DRSC15051 | 3.48e6
CG31038 (GeneID 43535) | DRSC16326 | 3.36e6
CG31038 (GeneID 43535) | DRSC16327 | 3.46e6
Brms1 (GeneID 32243) | DRSC19896 | 3.44e6
CG8568 (GeneID 32728) | DRSC20113 | 3.75e6
Hmbs (GeneID 46140) | DRSC08632 | 3.61e6
MAPk-Ak2 (GeneID 44573) | DRSC18678 | 3.70e6
Cpr56F (GeneID 37299) | DRSC07326 | 3.53e6
CG3036 (GeneID 33695) | DRSC00260 | 3.54e6
CG3036 (GeneID 33695) | DRSC00562 | 3.37e6
CG33143 (GeneID 37583) | DRSC04151 | 3.88e6
CG33143 (GeneID 37583) | DRSC04454 | 3.46e6
Cpr100A (GeneID 43657) | DRSC14465 | 3.61e6
CG16775 (GeneID 39993) | DRSC10225 | 3.47e6

In a second layout: entries from further up
| target | amplicon | mean viability with MMS |
| --- | --- | --- |
| CG3036 (GeneID 33695) | DRSC00260 | 3.54e6 |
| CG3036 (GeneID 33695) | DRSC00562 | 3.37e6 |
| CG33143 (GeneID 37583) | DRSC04151 | 3.88e6 |
